Consider three molecules from paper doi:10.1101/2022.07.12.499744.

Sequences of proteins named here, by UniProt entry; tags and fusion partners are left off. A change or cut given only in a name is not applied to a line headed by its entry.
UniProt Q9BRT9: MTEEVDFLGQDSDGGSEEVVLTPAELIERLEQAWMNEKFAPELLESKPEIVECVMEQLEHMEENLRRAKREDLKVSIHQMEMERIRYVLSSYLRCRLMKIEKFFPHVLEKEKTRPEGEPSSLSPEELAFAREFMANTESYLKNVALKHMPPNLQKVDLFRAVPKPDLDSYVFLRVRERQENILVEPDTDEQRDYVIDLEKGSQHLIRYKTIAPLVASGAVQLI
UniProt Q14691: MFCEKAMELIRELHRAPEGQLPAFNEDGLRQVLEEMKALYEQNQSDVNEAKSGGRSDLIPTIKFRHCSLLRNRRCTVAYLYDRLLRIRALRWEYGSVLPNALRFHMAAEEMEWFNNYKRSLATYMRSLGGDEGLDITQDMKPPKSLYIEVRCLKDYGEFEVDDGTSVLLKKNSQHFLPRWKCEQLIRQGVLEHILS
UniProt Q9Y248: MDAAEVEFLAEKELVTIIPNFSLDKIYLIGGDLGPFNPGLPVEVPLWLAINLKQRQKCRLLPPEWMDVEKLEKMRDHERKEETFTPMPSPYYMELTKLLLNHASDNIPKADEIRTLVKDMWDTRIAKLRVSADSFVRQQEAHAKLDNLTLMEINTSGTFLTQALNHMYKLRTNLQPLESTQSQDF
UniProt Q9BRX5: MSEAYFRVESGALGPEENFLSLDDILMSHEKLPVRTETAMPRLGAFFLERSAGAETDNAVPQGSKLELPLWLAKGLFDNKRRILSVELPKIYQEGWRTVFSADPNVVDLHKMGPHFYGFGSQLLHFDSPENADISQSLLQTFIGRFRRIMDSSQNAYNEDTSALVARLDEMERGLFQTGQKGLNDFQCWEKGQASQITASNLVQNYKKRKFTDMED

No constants are given. Whether binding was seen depends on the method and setting. Binding seen in cells or lysates may run through a third protein. Some entries that bind do so weakly or less than the wild type. Sequences can lack the tags named with a protein.

The target of test [1] is T1, FLAG-tagged LRR1 (human) (UniProt Q96L50).
T1 sequence: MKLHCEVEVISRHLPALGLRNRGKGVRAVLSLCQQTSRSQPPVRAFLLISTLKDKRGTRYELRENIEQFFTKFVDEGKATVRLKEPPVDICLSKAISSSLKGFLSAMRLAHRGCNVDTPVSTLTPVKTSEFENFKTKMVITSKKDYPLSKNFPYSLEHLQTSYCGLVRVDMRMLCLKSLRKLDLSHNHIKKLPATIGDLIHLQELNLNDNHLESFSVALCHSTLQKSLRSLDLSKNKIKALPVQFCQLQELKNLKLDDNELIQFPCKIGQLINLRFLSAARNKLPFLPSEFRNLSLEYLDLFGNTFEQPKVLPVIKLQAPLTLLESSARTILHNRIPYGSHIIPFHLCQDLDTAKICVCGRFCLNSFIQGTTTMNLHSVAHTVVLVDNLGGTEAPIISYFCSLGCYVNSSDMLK
Put plainly: co-IP.

The target of test [2] is GINS complex (SLD5, PSF1-3) (human (endogenous in U2OS and HCT116)) (UniProt Q9BRT9+Q14691+Q9Y248+Q9BRX5). Put plainly: co-IP.

Take “GINS complex (SLD5, PSF1-3) (from UniProt Q9BRT9 1-223; Q14691 1-196; Q9Y248 1-185; Q9BRX5 1-216)”: the binding result in test [1] is listed as “binds”.

B1: mAC-LRR1 (endogenous LRR1 tagged N-terminally with the mAC tag) (protein, UniProt Q96L50 1-414)
chain: T1 sequence
For B1, the binding result in test [2] is on record as “binds”.

B2: FLAG-LRR1ΔVHL (protein, UniProt Q96L50)
chain: MKLHCEVEVISRHLPALGLRNRGKGVRAVLSLCQQTSRSQPPVRAFLLISTLKDKRGTRYELRENIEQFFTKFVDEGKATVRLKEPPVDICLSKAISSSLKGFLSAMRLAHRGCNVDTPVSTLTPVKTSEFENFKTKMVITSKKDYPLSKNFPYSLEHLQTSYCGLVRVDMRMLCLKSLRKLDLSHNHIKKLPATIGDLIHLQELNLNDNHLESFSVALCHSTLQKSLRSLDLSKNKIKALPVQFCQLQELKNLKLDDNELIQFPCKIGQLINLRFLSAARNKLPFLPSEFRNLSLEYLDLFGNTFEQPKVLPVIKLQACVCGRFCLNSFIQGTTTMNLHSVAHTVVLVDNLGGTEAPIISYFCSLGCYVNSSDMLK
As to B2, the binding entry in test [2] was “binds”.
